Measured values as given in publication PMC11274643, “Design, Synthesis, Characterization, and Cytotoxicity of New Pyrazolylmethylene-2-thioxoimidazolidin-4-one Derivatives towards Androgen-Sensitive LNCaP Prostate Cancer Cells” (Biomolecules, 2024).

Tests used:
[1] = test system: AR+LNCaP androgen-sensitive human prostate cancer cell line; test: MTT cytotoxicity assay in presence of 1 nM DHT, 48 h incubation; format: cell-based; conditions: IC50 normal cells / IC50 cancer cells
Experimental: The antitumor properties of pyrazolylmethylene-2-thioxoimidazolidin-4-one derivatives (3a–p) against androgen-sensitive (AR^+LNCaP; ATCC CRL-1740, Accession: CVCL_0395) and androgen-insensitive (AR^-PC-3; ATCC CRL-1435, Accession: CVCL_D5ZS) human prostate cancer cell lines in addition to normal human lung fibroblast cell line (Wi38, Accession: CVCL_2759) were evaluated by MTT assay. AR^+LNCaP, AR^-PC-3, and Wi38 cell lines were purchased frozen in liquid nitrogen from Egyptian Company for Production of Vaccines, Sera and Drugs, Cairo, Egypt (VACSERA). Tumor cell lines were stored as monolayer cultures in DMEM supplemented with 10% FBS and 1% penicillin–streptomycin. MTT assay was carried out as described previously in the literature. In brief, AR^+LNCaP, AR^-PC-3, and Wi38 cells were cultured into 96-well plates containing 100 µL of culture medium per each well. […] A control containing only culture medium was also applied. The assay was performed in triplicate. The cells were incubated overnight to grow at 37 °C in 5% CO2. After removing the growth medium, 100 µL of MTT (0.4 mg/mL of PBS) were added. After 24 h of incubation, the supernatant was removed and 100 µL of DMSO (Sigma Aldrich, Germany) were then added to each sample. Absorbance at 550 nm was measured. The formula (Reading of extract/Reading of negative control) × 100 was applied to calculate the viability percentage. The IC50 value of test compounds (3a–p) was also determined using CPE measurements of normal Wi38 cells (normal human lung fibroblast cells). The MTT assay was repeated with the test compounds (3i, 3k, 3o, 3j, 3p, and 3m) using the three cell types which were stimulated by 1 nM DHT after 48 h of incubation. IC50 values were estimated using Graph Pad Prism computer software (International Scientific Community, San Diego, CA, USA) from linear regression analysis of the concentration–response curves plotted for each tested compound [36].
The assay was performed in the presence of dihydrotestosterone (1 nM DHT) for 48 h of incubation as previously described. DHT is a potent inducer of androgens that enhances prostate cancer disease progression.

AR+LNCaP cells = test: Cell apoptosis assay (Annexin V-FITC, flow cytometry); format: cell-based, human; conditions: IC50 concentration, 1 nM DHT
Experimental: Cell apoptosis assay was performed to ensure the efficacy of compounds 3i and 3k against the progression of AR^+LNCaP tumor cell growth in the presence of 1 nM DHT. Untreated AR^+LNCaP and Enzalutamide-treated AR^+LNCaP were used in this assay as negative and positive controls, respectively. AR^+LNCaP cells were precultured in 25 cm^2 flasks. Briefly, 1 nM DHT was then added to the growing cells. […] AR^+LNCaP cells were harvested and fixed with 70% (v/v) ethanol in FBS (Sigma-Aldrich, Germany), then maintained at 4 °C overnight. The cells were resuspended in FBS containing 0.1% (v/v) Triton X-100, 40 µg/mL […], and 0.1 mg/mL RNase then incubated in a dark chamber at 37 °C for 30 min. A flow-cytometer (Becton Dickinson, San Jose, CA, USA) supplemented with an argon ion laser at a wavelength of 488 nm was used to analyze the AR^+LNCaP cell apoptotic stages. Based on the protocol described by Ozgur et al. (2003), analysis of the data was implemented using Multicycle Software (Phoenix Flow Systems, San Diego, CA, USA; http://www.phoenixflow.com/index.html).
The active compounds 3i and 3k were further analyzed to evaluate their antitumor properties against the growth of the AR^+LNCaP prostate cancer cell line. […] Untreated AR^+LNCaP cells and Enzalutamide reference drug were also used as negative and positive controls in this assay, respectively.

SMILES | Safety Index Wi38/LNCaP [1] | fold increase in the percentage of early apoptotic cells compared to Enzalutamide (AR+LNCaP cells) | fold increase in the percentage of necrotic cells compared to Enzalutamide (AR+LNCaP cells)
O=C1NC(=S)NC1=Cc1cn(-c2ccc(C(F)(F)F)cc2)nc1-c1ccc(C(F)(F)F)cc1 [Compound 3p, 5-((1,3-Bis(4-(trifluoromethyl)phenyl)-1H-pyrazol-4-yl)methylene)-2-thioxoimidazolidin-4-one] | 3.4 |  | 
O=C1NC(=S)NC1=Cc1cn(-c2ccc(F)cc2)nc1-c1ccc(Br)cc1 [Compound 3j, 5-((3-(4-Bromophenyl)-1-(4-fluorophenyl)-1H-pyrazol-4-yl)methylene)-2-thioxoimidazolidin-4-one] | 2.7 |  | 
O=C1NC(=S)NC1=Cc1cn(-c2ccc(F)cc2)nc1-c1ccc(Cl)cc1 [Compound 3i, 5-((3-(4-Chlorophenyl)-1-(4-fluorophenyl)-1H-pyrazol-4-yl)methylene)-2-thioxoimidazolidin-4-one] | 3.6 |  | 
Cc1ccc(-c2nn(-c3ccc(F)cc3)cc2C=C2NC(=S)NC2=O)cc1 [Compound 3m, 5-((1-(4-Fluorophenyl)-3-(p-tolyl)-1H-pyrazol-4-yl)methylene)-2-thioxoimidazolidin-4-one] | 2.2 |  | 
O=C1NC(=S)NC1=Cc1cn(-c2ccc(C(F)(F)F)cc2)nc1-c1ccc(F)cc1 [Compound 3o, 5-((3-(4-Fluorophenyl)-1-(4-(trifluoromethyl)phenyl)-1H-pyrazol-4-yl)methylene)-2-thioxoimidazolidin-4-one] | 1.9 |  | 
O=C1NC(=S)NC1=Cc1cn(-c2ccc(F)cc2)nc1-c1ccc(C(F)(F)F)cc1 [Compound 3k, 5-((1-(4-Fluorophenyl)-3-(4-(trifluoromethyl)phenyl)-1H-pyrazol-4-yl)methylene)-2-thioxoimidazolidin-4-one] | 3.8 | 1.3 fold | 1.9 fold
